Drawing on PMC10298792, this text covers binding for 2 substances.

Protein sequences, listed by entry. Tags and fused reporters are not part of them.
UniProt Q07812: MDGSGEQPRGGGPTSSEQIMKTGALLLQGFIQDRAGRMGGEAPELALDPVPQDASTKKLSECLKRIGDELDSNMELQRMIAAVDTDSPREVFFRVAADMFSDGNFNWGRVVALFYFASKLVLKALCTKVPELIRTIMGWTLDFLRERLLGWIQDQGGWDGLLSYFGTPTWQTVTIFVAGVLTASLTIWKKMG

For this assay, the target named is T1, GFP-tagged full-length human Pxt1 (peroxisomal testis-specific 1) (human) (UniProt Q8NFP0).
T1 sequence: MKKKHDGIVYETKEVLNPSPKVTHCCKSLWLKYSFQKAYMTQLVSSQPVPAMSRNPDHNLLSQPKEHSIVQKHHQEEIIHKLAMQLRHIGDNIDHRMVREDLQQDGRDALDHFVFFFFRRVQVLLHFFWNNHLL
Nature of the assay: co-IP; HeLa cells expressing GFP-tagged Pxt1 constructs with transiently expressed HA-Bak or HA-Bax, or with endogenous Bak/Bax; 20 μM z-VAD-fmk before transfection; lysis in 50 mM Tris–HCl pH 7.5, 150 mM NaCl, 0.5% Triton X-100, 1 mM EDTA; anti-GFP or anti-HA antibody overnight at 4°C, protein G agarose; immunoblotting.

These are yes or no findings as the source states them, for the method shown. In cells and extracts the contact can be indirect. Some results given as binding are weak or reduced against the parent protein; the word gives no strength. Where a sequence is shown, tags or fusion partners need not be part of it.

With “HA-tagged full-length Bax (Bcl-2-associated X), transiently expressed (from UniProt Q07812 1-192)”, the binding result is “binds”.
In the case of “endogenous Bax of HeLa cells (from UniProt Q07812 1-192)”, the binding entry is reported as “binds”.
